Laboratory results as given in the supplement of paper PMC11542785.
Where a name gives a salt, the structure may show the parent alone. Some of the results follow. Most values come without repeats; read them as rough.

System: Drosophila melanogaster DPAGT1 (Alg7) RNAi eye model
Test: eye size Z-score vs DMSO-treated DPAGT1 model flies; higher = larger eye (suppression of DPAGT1 phenotype)
Conditions: 5 uM

Compound | eye size Z-score | eye size Z-score (female)
CN(C)CCN1C(=O)c2ccccc2N(C)c2ccccc21 [Dibenzepine hydrochloride] | -1.06 | 
COc1ccc(OC)c(C(O)CNC(=O)CN)c1 (stereo not drawn) [Midodrine hydrochloride] | 0.71 | 
CN(C(=O)C(Cl)Cl)c1ccc(OC(=O)c2ccco2)cc1 [Diloxanide furoate] | -0.67 | 
Nc1ccn([C@H]2CC[C@@H](CO)O2)c(=O)n1 [Zalcitabine] | -0.33 | 
CN(C)CCOC(C)(c1ccccc1)c1ccccn1 (stereo not drawn) [Doxylamine succinate] | 1.14 | 
CC(=O)c1ccc2c(c1)N(CCCN(C)C)c1ccccc1S2 [Acetopromazine maleate salt] | -0.68 | 
C[C@@H](O)[C@H]1C(=O)N2C(C(=O)O)=C(S[C@@H]3CN[C@H](CNS(N)(=O)=O)C3)[C@H](C)[C@H]12 [Doripenem monohydrate] | 0.21 | 
CC(C)(C#N)c1cc(Cn2cncn2)cc(C(C)(C)C#N)c1 [Anastrozole] | -0.91 | 
C(=C\c1ccccc1)/CN1CCN(C(c2ccccc2)c2ccccc2)CC1 [Cinnarizine] | -0.16 | 
O=C(C1CCCCC1)N1CC(=O)N2CCc3ccccc3C2C1 (stereo not drawn) [Praziquantel] | -0.79 | 
C[C@@H]1CCO[C@H]2Cn3cc(C(=O)NCc4ccc(F)cc4F)c(=O)c(O)c3C(=O)N12 [Dolutegravir] | -0.31 | 
COc1ccc2c(c1)c(CC(=O)O)c(C)n2C(=O)c1ccc(Cl)cc1 [Indomethacin] | -0.49 | 
CN1CCC(=C2c3ccccc3CCc3cccnc32)CC1 [Azatadine maleate] | 0.69 | 
Nc1nc2ccc(OC(F)(F)F)cc2s1 [Riluzole hydrochloride] |  | 0.5
CC(C)(C)NCC(O)COc1cccc2c1CCC(=O)N2 (stereo not drawn) [Carteolol hydrochloride] | -0.45 | 
C=C1c2c(Cl)ccc(O)c2C(=O)C2=C(O)[C@]3(O)C(=O)C(C(N)=O)=C(O)[C@@H](N(C)C)[C@@H]3[C@@H](O)[C@H]12.O=C(O)c1cc(S(=O)(=O)O)ccc1O [Meclocycline sulfosalicylate] | -0.34 | 
CC(=O)NCCCS(=O)(=O)O [Acamprosate calcium] | -0.75 | 
CCOC(=O)O[C@]1(C(=O)COC(=O)CC)CC[C@H]2[C@@H]3CCC4=CC(=O)C=C[C@]4(C)[C@H]3[C@@H](O)C[C@@]21C [Prednicarbate] | 0.29 | 
Cc1c(C(=O)NN2CCCCC2)nn(-c2ccc(Cl)cc2Cl)c1-c1ccc(Cl)cc1 [Rimonabant] | 0.18 | 
COc1cc2c(cc1OC)CC(=O)N(CCCN(C)C[C@H]1Cc3cc(OC)c(OC)cc31)CC2 [Ivabradine hydrochloride] | 1.35 | 
C[C@H]1c2cccc(O)c2C(=O)C2=C(O)[C@]3(O)C(=O)C(C(N)=O)=C(O)[C@@H](N(C)C)[C@@H]3[C@@H](O)[C@@H]21 [Doxycycline hydrochloride] | -1.12 | 
Clc1ccc(C(Cn2ccnc2)OCc2ccsc2Cl)c(Cl)c1 (stereo not drawn) [Tioconazole] | 0.33 | 
CCCC1C(=O)N2C(N(C)C)=Nc3ccc(C)cc3N2C1=O (stereo not drawn) [Azapropazone] | 0.5 | 
c1cnc(N2CCN(Cc3ccc4c(c3)OCO4)CC2)nc1 [Piribedil] | 1.14 | 
CCOC(=O)O[C@]1(C(=O)OCCl)CC[C@H]2[C@@H]3CCC4=CC(=O)C=C[C@]4(C)[C@H]3[C@@H](O)C[C@@]21C [Loteprednol etabonate] | 0.12 | 

Compound | eye size Z-score | eye size Z-score (female)
Cc1ccc(NC(=O)c2ccc(CN3CCN(C)CC3)cc2)cc1Nc1nccc(-c2cccnc2)n1 [Imatinib] | -0.58 | 
O=C(O)c1cn(C2CC2)c2cc(N3CCNCC3)c(F)cc2c1=O [Ciprofloxacin hydrochloride monohydrate] | 0.49 | 
CCOc1nc2cccc(C(=O)OCc3oc(=O)oc3C)c2n1Cc1ccc(-c2ccccc2-c2noc(=O)[nH]2)cc1 [Azilsartan medoxomil] | 0.1 | 
C#CCN[C@@H]1CCc2ccccc21 [Rasagiline] | -0.21 | 
COc1ccc(-c2cc(=S)ss2)cc1 [Anethole-trithione] | 0.1 | 
CCCN1CCCC[C@H]1C(=O)Nc1c(C)cccc1C [Ropivacaine hydrochloride] | 0.67 | 
COc1cc(C(=O)NCc2ccc(OCCN(C)C)cc2)cc(OC)c1OC [Trimethobenzamide hydrochloride] | -0.19 | 
CN1CC(=O)N2[C@H](c3ccc4c(c3)OCO4)c3[nH]c4ccccc4c3C[C@@H]2C1=O [Tadalafil] | -0.12 | 
C1CCC(C(CC2CCCCN2)C2CCCCC2)CC1 (stereo not drawn) [Perhexiline maleate] | 0 | 
CC(C)NCC(O)COc1ccc(CCOCC2CC2)cc1 (stereo not drawn) [Betaxolol hydrochloride] | -0.13 | 
CCc1nc(N)nc(N)c1-c1ccc(Cl)cc1 [Pyrimethamine] | 0.48 | 
CC(=O)[C@@]1(O)CC[C@H]2[C@@H]3C[C@H](C)C4=CC(=O)C=C[C@]4(C)[C@@]3(F)[C@@H](O)C[C@@]21C [Fluorometholone] | -0.57 | 
CCN(CC)CCNC(=O)c1cc(Cl)c(N)cc1OC [Metoclopramide monohydrochloride] | -0.15 | 
CC(C)=C/C(C)=N/Nc1nncc2ccccc12 [Budralazine] | 0.88 | 
CCOc1ccc2ccccc2c1C(=O)N[C@@H]1C(=O)N2[C@@H]1SC(C)(C)[C@@H]2C(=O)O [Nafcillin sodium salt monohydrate] | -0.36 | 
CN(C)C/C=C(/c1ccc(Br)cc1)c1cccnc1 [Zimelidine dihydrochloride monohydrate] | -1.32 | 
Cn1cnc2c1c(=O)[nH]c(=O)n2C [Theobromine] | 0.45 | 
CC1=NN(c2ccccc2)C(=O)C1 [Edaravone] | 0.38 | 
CCC[C@@H]1C[C@@H](C(=O)N[C@@H]([C@H]2O[C@H](SC)[C@H](O)[C@@H](O)[C@H]2O)[C@H](C)Cl)N(C)C1 [Clindamycin hydrochloride] | 0.27 | 
O=C(N[C@H](CO)[C@H](O)c1ccc([N+](=O)[O-])cc1)C(Cl)Cl [Chloramphenicol] |  | 0.26
O=C(O)CCNC(=O)c1ccccc1 [Betamipron] | 0.68 | 
Cc1ccc2c(c1)c1c3n2CCNC3CCC1 (stereo not drawn) [Pirlindole mesylate] | 1.5 | 
CN(C)CCC=C1c2ccccc2COc2ccccc21 [Doxepin hydrochloride] | -0.41 | 
CN1CCC[C@@H]1Cc1c[nH]c2ccc(CCS(=O)(=O)c3ccccc3)cc12 [Eletriptan] | 1.28 | 
CC(C)[N+](C)(CCOC(=O)C1c2ccccc2Oc2ccccc21)C(C)C [Propantheline bromide] | 0.3 | 

A different layout for some results above.
Compound	eye size Z-score	eye size Z-score (female)
CC(=O)c1ccc2c(c1)N(CCCN(C)C)c1ccccc1S2 [Acetopromazine maleate salt]	-0.68	
C[C@@H](O)[C@H]1C(=O)N2C(C(=O)O)=C(S[C@@H]3CN[C@H](CNS(N)(=O)=O)C3)[C@H](C)[C@H]12 [Doripenem monohydrate]	0.21	
CC(C)(C#N)c1cc(Cn2cncn2)cc(C(C)(C)C#N)c1 [Anastrozole]	-0.91	
C(=C\c1ccccc1)/CN1CCN(C(c2ccccc2)c2ccccc2)CC1 [Cinnarizine]	-0.16	

Further records follow:

Compound | eye size Z-score | eye size Z-score (female)
CC(C)Cc1ccc(CC(=O)O)cc1 [Ibufenac] | -0.26 | 
COc1ccccc1Oc1c(NS(=O)(=O)c2ccc(C(C)(C)C)cc2)nc(-c2ncccn2)nc1OCCO [Bosentan] | -0.89 | 
Nc1ccccc1S(N)(=O)=O [o-Sulfanilamide] | -0.15 | 
CN1CCN(C2Cc3ccccc3Sc3ccc(Cl)cc32)CC1 (stereo not drawn) [Octoclothepin maleate salt] | 0.44 | 
NS(=O)(=O)c1cc2c(cc1Cl)NC(C(Cl)Cl)NS2(=O)=O (stereo not drawn) [Trichlormethiazide] | -0.36 | 
CN[C@@H]1[C@H](O)[C@H](NC)[C@H]2O[C@@]3(O)C(=O)C[C@@H](C)O[C@H]3O[C@@H]2[C@H]1O [Spectinomycin dihydrochloride] | -0.96 | 
Cc1onc(-c2ccccc2Cl)c1C(=O)N[C@@H]1C(=O)N2[C@@H]1SC(C)(C)[C@@H]2C(=O)O [Cloxacillin sodium salt] | -0.1 | 
N[C@@H](C(=O)N[C@@H]1C(=O)N2C(C(=O)O)=C(Cl)CC[C@H]12)c1ccccc1 [Loracarbef] | 0.04 | 
C#Cc1cccc(Nc2ncnc3cc(OCCOC)c(OCCOC)cc23)c1 [Erlotinib] | 0.01 | 
CC(C)Nc1cccnc1N1CCN(C(=O)c2cc3cc(NS(C)(=O)=O)ccc3[nH]2)CC1 [Delavirdine] | 0.32 | 
CN[C@@H]1[C@@H](O[C@H]2O[C@H](CO)[C@@H](N)[C@H](O)[C@H]2O)OC2C[C@@H](N)[C@@H](O[C@H]3[C@H](O)[C@@H](O)[C@H](N)C[C@@H]3N)OC2[C@@H]1O (stereo partly drawn) [Apramycin] | 0.5 | 
Cc1c(-c2ccccc2)oc2c(C(=O)OCCN3CCCCC3)cccc2c1=O [Flavoxate hydrochloride] | -0.21 | 
CCOC(=O)C(C)(N)Cc1cc(I)c(Oc2cc(I)c(O)c(I)c2)c(I)c1 (stereo not drawn) [Etiroxate hydrochloride] | -1.03 | 
C[C@]12CC[C@@H]3c4ccc(O)cc4CC[C@H]3[C@@H]1CC[C@@H]2O [Estradiol-17 beta] | -0.84 | 
CCCN(CCC)S(=O)(=O)c1ccc(C(=O)O)cc1 [Probenecid] | 1.2 | 
CCN(CC)C(=O)c1cccnc1 [Nikethamide] | 0.97 | 
COc1ccc2[nH]c([S+]([O-])Cc3ncc(C)c(OC)c3C)nc2n1 (stereo not drawn) [Tenatoprazole] | -1.68 | 
CN(C)CCOC(c1ccccc1)c1ccccc1 [Diphenhydramine hydrochloride] | -0.16 | 
CC(=O)[C@H]1CC[C@H]2[C@@H]3CCC4=CC(=O)CC[C@]4(C)[C@H]3CC[C@]12C [Progesterone] | -0.05 | 
CN(C)CC/C=C1/c2ccccc2Sc2ccc(Cl)cc21 [Chlorprothixene hydrochloride] | -0.59 | 
N[C@@H](Cc1cc(I)c(Oc2cc(I)c(O)c(I)c2)c(I)c1)C(=O)O [(L) Thyroxine] | -0.05 | 
N=C(N)NC(=O)Cc1c(Cl)cccc1Cl [Guanfacine hydrochloride] | 1.3 | 
O=C(O)Cc1ccccc1Oc1ccc(Cl)cc1Cl [Fenclofenac] | 0.29 | 
